Measured values reported in paper doi:10.1101/2025.09.04.674186.
No constants are given. Whether binding was seen depends on the method and setting. For some of these results: Binding seen in cells or lysates may run through a third protein. Some binding calls cover weakened binding; strength is not graded here. For some of these results: Where a sequence is shown, tags or fusion partners need not be part of it. Each block holds one molecule with its values, some of them ahead of it.

Chains of the proteins cited; added tags and fusions are not shown.
UniProt P70288: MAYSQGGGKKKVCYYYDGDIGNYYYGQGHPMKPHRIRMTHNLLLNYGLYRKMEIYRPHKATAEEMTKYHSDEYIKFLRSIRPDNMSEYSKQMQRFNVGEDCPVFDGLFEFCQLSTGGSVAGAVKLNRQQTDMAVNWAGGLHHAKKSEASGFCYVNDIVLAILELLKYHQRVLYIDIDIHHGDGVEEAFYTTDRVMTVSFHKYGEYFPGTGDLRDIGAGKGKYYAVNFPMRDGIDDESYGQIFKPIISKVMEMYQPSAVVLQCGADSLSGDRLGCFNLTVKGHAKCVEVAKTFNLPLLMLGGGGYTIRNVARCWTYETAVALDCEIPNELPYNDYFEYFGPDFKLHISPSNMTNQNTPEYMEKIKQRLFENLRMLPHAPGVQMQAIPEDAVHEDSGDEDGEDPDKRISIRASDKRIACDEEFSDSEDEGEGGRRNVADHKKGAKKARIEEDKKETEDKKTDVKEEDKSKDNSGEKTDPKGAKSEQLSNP
UniProt Q13547: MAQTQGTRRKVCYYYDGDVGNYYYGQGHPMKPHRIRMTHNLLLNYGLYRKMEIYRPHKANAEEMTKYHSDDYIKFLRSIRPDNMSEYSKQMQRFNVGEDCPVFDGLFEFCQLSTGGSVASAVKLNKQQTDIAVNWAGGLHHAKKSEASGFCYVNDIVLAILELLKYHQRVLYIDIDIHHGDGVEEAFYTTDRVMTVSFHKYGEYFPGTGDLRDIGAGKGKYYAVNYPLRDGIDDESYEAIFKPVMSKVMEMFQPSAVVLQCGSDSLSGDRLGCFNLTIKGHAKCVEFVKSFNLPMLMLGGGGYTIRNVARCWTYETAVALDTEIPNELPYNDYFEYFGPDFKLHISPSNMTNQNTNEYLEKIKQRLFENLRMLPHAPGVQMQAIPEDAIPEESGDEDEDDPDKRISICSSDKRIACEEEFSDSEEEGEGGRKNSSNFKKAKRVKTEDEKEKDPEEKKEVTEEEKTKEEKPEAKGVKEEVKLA
UniProt Q92769: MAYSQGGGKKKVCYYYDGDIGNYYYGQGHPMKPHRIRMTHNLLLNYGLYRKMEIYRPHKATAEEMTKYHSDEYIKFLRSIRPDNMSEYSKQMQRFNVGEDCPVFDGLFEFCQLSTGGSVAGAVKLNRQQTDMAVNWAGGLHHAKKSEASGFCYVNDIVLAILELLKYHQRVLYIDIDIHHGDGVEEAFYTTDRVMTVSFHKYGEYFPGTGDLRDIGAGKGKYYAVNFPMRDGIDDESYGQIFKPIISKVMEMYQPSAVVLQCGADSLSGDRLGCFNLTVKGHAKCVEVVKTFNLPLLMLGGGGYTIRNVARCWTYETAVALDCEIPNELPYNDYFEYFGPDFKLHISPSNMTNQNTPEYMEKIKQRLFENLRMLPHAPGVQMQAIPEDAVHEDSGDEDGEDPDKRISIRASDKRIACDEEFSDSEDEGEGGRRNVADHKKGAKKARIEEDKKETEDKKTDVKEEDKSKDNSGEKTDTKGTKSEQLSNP
UniProt O09106: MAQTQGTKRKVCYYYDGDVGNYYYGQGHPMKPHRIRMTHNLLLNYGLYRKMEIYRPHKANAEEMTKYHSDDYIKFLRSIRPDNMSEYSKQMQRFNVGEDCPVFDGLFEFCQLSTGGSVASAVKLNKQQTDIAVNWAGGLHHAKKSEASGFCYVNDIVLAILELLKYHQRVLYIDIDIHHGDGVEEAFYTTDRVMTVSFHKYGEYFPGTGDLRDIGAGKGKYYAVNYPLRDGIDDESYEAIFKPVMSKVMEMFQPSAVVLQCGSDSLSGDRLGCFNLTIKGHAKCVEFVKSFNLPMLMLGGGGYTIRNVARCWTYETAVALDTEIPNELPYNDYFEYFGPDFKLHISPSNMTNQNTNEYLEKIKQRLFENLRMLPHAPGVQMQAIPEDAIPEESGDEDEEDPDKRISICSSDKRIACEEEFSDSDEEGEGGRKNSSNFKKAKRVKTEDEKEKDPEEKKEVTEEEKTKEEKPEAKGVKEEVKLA

Experiments:
[1] = target: T1, Ddx21 (mouse, endogenous) (mouse (endogenous in fetal liver LK cells)) (UniProt Q9JIK5); assay: proximity ligation
T1 sequence: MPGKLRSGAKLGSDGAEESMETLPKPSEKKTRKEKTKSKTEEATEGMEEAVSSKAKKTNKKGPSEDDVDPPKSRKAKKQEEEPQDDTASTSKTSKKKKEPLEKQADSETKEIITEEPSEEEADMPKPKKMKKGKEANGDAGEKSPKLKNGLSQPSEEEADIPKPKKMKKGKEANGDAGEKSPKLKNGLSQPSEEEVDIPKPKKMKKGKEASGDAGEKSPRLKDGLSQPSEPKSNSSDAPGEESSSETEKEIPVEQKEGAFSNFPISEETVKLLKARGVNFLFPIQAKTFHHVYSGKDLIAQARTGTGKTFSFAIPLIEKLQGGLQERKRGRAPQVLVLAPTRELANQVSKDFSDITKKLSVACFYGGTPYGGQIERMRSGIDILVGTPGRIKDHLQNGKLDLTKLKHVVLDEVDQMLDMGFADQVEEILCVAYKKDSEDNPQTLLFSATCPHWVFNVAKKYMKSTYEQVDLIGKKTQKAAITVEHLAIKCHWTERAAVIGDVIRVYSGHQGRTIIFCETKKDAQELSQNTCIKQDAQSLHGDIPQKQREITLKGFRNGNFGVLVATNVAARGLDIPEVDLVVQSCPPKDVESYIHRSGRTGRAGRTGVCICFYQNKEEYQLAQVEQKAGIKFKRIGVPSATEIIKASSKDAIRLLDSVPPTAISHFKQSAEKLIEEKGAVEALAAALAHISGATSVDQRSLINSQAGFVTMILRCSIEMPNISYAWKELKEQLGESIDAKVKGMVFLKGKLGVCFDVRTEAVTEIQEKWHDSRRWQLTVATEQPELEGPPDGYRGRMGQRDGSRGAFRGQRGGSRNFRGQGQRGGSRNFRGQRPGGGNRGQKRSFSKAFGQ

Flag-DDX21 (human) = target: T2, Flag-DDX21 (human) (UniProt Q9NR30); assay: co-IP
T2 sequence: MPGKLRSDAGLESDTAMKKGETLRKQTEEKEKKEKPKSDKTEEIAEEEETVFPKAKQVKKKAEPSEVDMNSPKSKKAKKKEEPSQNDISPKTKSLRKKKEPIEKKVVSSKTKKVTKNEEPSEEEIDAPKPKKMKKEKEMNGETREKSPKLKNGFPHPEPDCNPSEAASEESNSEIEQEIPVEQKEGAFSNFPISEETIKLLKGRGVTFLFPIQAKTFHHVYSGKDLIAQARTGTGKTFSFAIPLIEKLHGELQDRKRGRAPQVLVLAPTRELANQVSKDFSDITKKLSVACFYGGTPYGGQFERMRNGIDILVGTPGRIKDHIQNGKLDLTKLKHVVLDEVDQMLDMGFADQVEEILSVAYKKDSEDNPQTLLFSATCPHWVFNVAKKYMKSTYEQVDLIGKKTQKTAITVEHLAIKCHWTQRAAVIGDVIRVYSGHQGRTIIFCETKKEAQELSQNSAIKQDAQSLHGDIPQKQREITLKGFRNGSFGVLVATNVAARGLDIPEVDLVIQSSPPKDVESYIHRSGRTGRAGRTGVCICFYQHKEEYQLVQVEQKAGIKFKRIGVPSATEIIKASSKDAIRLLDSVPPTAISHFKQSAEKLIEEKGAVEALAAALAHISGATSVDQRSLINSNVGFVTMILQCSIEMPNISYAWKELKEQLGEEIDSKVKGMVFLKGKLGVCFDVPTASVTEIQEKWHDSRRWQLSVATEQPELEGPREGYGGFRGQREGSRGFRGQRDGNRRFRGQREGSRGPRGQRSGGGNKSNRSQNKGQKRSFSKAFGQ

[2] = target: T3, recombinant DDX21 protein (full-length human DDX21, 6xHis-TEV) (human) (UniProt Q9NR30); assay: pull-down
T3 sequence: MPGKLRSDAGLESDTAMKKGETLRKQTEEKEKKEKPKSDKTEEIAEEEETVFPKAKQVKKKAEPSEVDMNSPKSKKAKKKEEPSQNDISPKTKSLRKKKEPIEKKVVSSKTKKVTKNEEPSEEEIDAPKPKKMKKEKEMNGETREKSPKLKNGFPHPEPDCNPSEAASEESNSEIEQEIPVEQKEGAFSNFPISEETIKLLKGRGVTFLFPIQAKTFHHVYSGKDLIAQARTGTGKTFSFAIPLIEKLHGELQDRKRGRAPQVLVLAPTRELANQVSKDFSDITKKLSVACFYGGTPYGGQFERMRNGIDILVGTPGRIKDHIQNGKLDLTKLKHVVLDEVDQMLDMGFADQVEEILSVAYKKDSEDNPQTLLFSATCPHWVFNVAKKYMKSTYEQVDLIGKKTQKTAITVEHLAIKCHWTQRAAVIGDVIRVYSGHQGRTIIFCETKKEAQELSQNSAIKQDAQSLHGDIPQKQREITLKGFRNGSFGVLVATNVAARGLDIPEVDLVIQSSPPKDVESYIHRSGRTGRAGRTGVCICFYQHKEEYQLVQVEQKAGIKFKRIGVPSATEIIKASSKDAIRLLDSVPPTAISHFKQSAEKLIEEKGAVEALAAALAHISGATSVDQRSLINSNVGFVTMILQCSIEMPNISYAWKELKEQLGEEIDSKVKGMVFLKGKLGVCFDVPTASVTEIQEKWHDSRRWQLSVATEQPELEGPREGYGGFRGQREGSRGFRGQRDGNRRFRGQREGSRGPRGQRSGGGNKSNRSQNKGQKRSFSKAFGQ

[3] = target: T4, DDX21 (endogenous) (human) (UniProt Q9NR30); assay: co-IP
T4 sequence: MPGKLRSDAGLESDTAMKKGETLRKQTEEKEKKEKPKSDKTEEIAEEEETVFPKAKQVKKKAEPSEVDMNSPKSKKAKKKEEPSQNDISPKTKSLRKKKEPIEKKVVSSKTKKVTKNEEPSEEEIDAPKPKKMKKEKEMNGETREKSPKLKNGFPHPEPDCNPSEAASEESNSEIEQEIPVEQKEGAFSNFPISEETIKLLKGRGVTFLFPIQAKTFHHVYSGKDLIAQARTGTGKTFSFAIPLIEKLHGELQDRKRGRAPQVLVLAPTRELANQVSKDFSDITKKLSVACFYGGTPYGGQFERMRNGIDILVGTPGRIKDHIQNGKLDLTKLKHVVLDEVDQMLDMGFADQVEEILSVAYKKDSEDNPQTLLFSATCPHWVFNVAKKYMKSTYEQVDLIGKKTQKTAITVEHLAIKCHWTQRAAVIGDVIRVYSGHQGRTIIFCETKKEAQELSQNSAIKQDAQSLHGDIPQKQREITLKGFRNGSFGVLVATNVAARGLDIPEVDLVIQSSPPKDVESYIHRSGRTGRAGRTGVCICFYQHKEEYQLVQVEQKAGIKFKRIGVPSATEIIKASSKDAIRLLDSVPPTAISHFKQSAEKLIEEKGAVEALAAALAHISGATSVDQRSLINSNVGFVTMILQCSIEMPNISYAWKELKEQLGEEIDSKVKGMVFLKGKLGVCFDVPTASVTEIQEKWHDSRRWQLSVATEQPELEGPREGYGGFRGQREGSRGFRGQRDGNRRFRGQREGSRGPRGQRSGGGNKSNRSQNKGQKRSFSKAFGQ

binding [1]: binds
Molecule: Hdac2 (mouse, endogenous) (from UniProt P70288 1-488) (enzyme)

binding (Flag-DDX21 (human)): binds
Molecule: HDAC1-V5 (from UniProt Q13547 1-482) (enzyme)

binding (Flag-DDX21 (human)): binds
Molecule: HDAC2-V5 (from UniProt Q92769 1-488) (enzyme)

binding [2]: binds
Molecule: HDAC1 (BPS Bioscience, 50051) (from UniProt Q13547 1-482) (enzyme)

binding [1]: binds
Molecule: Hdac1 (mouse, endogenous) (from UniProt O09106 1-482) (enzyme)

binding [3]: binds
Molecule: HDAC1 (endogenous) (from UniProt Q13547 1-482) (enzyme)

binding [1]: binds
B1: Sin3a (mouse, endogenous) (protein, UniProt Q60520 1-1274)
chain: MKRRLDDQESPVYAAQQRRIPGSTEAFSHQHRVLAPAPPVYEAVSETMQSATGIQYSVAPNYQVSAVPQSSGSHGPAIAAVHSSHHHPTAVQPHGGQVVQSHAHPAPPVAPVQGQQQFQRLKVEDALSYLDQVKLQFGSQPQVYNDFLDIMKEFKSQSIDTPGVISRVSQLFKGHPDLIMGFNTFLPPGYKIEVQTNDMVNVTTPGQVHQIPTHGIQPQPQPPPQHPSQPSSQSAPTPAQPAPQPTAAKVSKPSQLQAHTPASQQTPPLPPYASPRSPPVQPHTPVTISLGTAPSLQNNQPVEFNHAINYVNKIKNRFQGQPDIYKAFLEILHTYQKEQRNAKEAGGNYTPALTEQEVYAQVARLFKNQEDLLSEFGQFLPDANSSVLLSKTTAEKVDSVRNDHGGTVKKPQLNNKPQRPSQNGCQIRRHSGTGATPPVKKKPKLMSLKESSMADASKHGVGTESLFFDKVRKALRSAEAYENFLRCLVIFNQEVISRAELVQLVSPFLGKFPELFNWFKNFLGYKESVHLESFPKERATEGIAMEIDYASCKRLGSSYRALPKSYQQPKCTGRTPLCKEVLNDTWVSFPSWSEDSTFVSSKKTQYEEHIYRCEDERFELDVVLETNLATIRVLEAIQKKLSRLSAEEQAKFRLDNTLGGTSEVIHRKALQRIYADKAADIIDGLRKNPSIAVPIVLKRLKMKEEEWREAQRGFNKVWREQNEKYYLKSLDHQGINFKQNDTKVLRSKSLLNEIESIYDERQEQATEENAGVPVGPHLSLAYEDKQILEDAAALIIHHVKRQTGIQKEDKYKIKQIMHHFIPDLLFAQRGDLSDVEEEEEEEMDVDEATGAPKKHNGVGGSPPKSKLLFSNTAAQKLRGMDEVYNLFYVNNNWYIFMRLHQILCLRLLRICSQAERQIEEENREREWEREVLGIKRDKSDSPAIQLRLKEPMDVDVEDYYPAFLDMVRSLLDGNIDSSQYEDSLREMFTIHAYIAFTMDKLIQSIVRQLQHIVSDEVCVQVTDLYLAENNNGATGGQLNSQTSRSLLESAYQRKAEQLMSDENCFKLMFIQSQGQVQLTVELLDTEEENSDDPVEAERWSDYVERYMSSDTTSPELREHLAQKPVFLPRNLRRIRKCQRGREQQEKEGKEGNSKKTMENVESLDKLECRFKLNSYKMVYVIKSEDYMYRRTALLRAHQSHERVSKRLHQRFQAWVDKWTKEHVPREMAAETSKWLMGEGLEGLVPCTTTCDTETLHFVSINKYRVKYGTVFKAP
